Reference: PubChem BioAssay AID330 (DTP/NCI, 2004)
The list is a part of this screen's results and no random one: its compounds were picked by chemical class. Other doses and runs of a compound may be missing. T/C gives the treated animals as a percentage of the vehicle group. Some doses have a count of surviving animals in place of a T/C: the source holds a T/C of zero for them, seemingly a mark for toxic or unscored doses. Some survivor counts are full or nearly so, which does not show that the dose was tolerated: survival well below the control is almost never listed, so the zero probably covers shortened survival too. Counts of survivors are from the toxicity check (mostly the fifth day) where no day follows; animals may have died later. Schedule codes are those of the source, read here as Q, the interval in days (D) or hours (H), X, the number of doses. Some complexes appear as separate parts, the way the source draws them; their charges need not add up. For survival time, this PubChem deposit counts one and a half times the control or more as active, and values a quarter to a half above the control carry no call in these data; other NCI protocols may use other cut-offs. Some entries hold several experiments; the results are listed from low to high. Some T/C values are marked as having no survivor count here; that says nothing about deaths at the dose. Some T/C values carry the count of animals alive at the toxicity check (mostly the fifth day); without a count or a note in brackets, all were alive then.

Tested on: P388 leukemia ip, CD2F1 mice, survival T/C
Test: NCI In Vivo Anticancer Drug Screen. Data for tumor model P388 Leukemia (intraperitoneal) in CD2F1 (CDF1) mice
Conditions: T/C endpoint: median survival time, higher T/C = longer survival
[1] = dose: 100.0 mg/kg/injection, schedule: Q01DX009 (ip), vehicle: saline
[2] = dose: 200.0 mg/kg/injection, schedule: Q01DX009 (ip), vehicle: saline
[3] = dose: 400.0 mg/kg/injection, schedule: Q01DX009 (ip), vehicle: saline
[4] = dose: 25.0 mg/kg/injection, schedule: Q01DX009 (ip), vehicle: other
[5] = dose: 50.0 mg/kg/injection, schedule: Q01DX009 (ip), vehicle: other
[6] = dose: 100.0 mg/kg/injection, schedule: Q01DX009 (ip), vehicle: other
[7] = dose: 200.0 mg/kg/injection, schedule: Q01DX005 (ip), vehicle: Klucel (hydroxypropylcellulose) (HPC)
[8] = dose: 6.25 mg/kg/injection, schedule: Q01DX009 (ip), vehicle: saline
[9] = dose: 12.5 mg/kg/injection, schedule: Q01DX009 (ip), vehicle: saline

In the case of `CC(N)(Cc1ccc(N(CCCl)CCCl)cc1)C(=O)O` (stereo unspecified), the T/C (dose: 5.0 mg/kg/injection, schedule: Q04DX003 (ip), vehicle: other) is reported as 193 % of control, the T/C (dose: 5.0 mg/kg/injection, schedule: Q04DX003 (ip), vehicle: water) is reported as 160 % of control and the T/C (dose: 10.0 mg/kg/injection, schedule: Q04DX003 (ip), vehicle: other) is reported as 198 % of control. The T/C (dose: 10.0 mg/kg/injection, schedule: Q04DX003 (ip), vehicle: water) was 169 % of control, the T/C (dose: 20.0 mg/kg/injection, schedule: Q04DX003 (ip), vehicle: other) was 280 % of control and the T/C (dose: 20.0 mg/kg/injection, schedule: Q04DX003 (ip), vehicle: water) was 221 % of control. The T/C (dose: 40.0 mg/kg/injection, schedule: Q04DX003 (ip), vehicle: other) was 318 % of control, the T/C (dose: 40.0 mg/kg/injection, schedule: Q04DX003 (ip), vehicle: water) was 292 % of control and the T/C (dose: 80.0 mg/kg/injection, schedule: Q04DX003 (ip), vehicle: water) was 91 % of control.
For `COC(=O)N(CCCl)CCCl`, the T/C (dose: 100.0 mg/kg/injection, schedule: Q04DX003 (ip), vehicle: Klucel (hydroxypropylcellulose) (HPC)) was 112 % of control, the T/C (dose: 200.0 mg/kg/injection, schedule: Q04DX003 (ip), vehicle: Klucel (hydroxypropylcellulose) (HPC)) was 115 % of control [5 of 6 alive] and the survivor count (dose: 400.0 mg/kg/injection, schedule: Q04DX003 (ip), vehicle: Klucel (hydroxypropylcellulose) (HPC)) was 1 of 6.
For `CC(C)(Cl)CSSCC(C)(C)Cl`, the T/C (dose: 50.0 mg/kg/injection, schedule: Q01DX009 (ip), vehicle: saline) was 89 % of control [5 of 6 alive], the T/C [1] was 99 % of control and the T/C [2] was 100 % of control.
For `O=[N+]([O-])N1CN([N+](=O)[O-])CN([N+](=O)[O-])C1`, the survivor count [1] was 0 of 6, the survivor count [2] was 0 of 6 and the survivor count [3] was 0 of 6.
For `CCOP(=S)(CC)Oc1cnn(C)c(=O)c1SCC` (stereo unspecified), the T/C (dose: 1.56 mg/kg/injection, schedule: Q01DX005 (ip), vehicle: saline with Tween-80) was 102 % of control, the T/C (dose: 3.13 mg/kg/injection, schedule: Q01DX005 (ip), vehicle: saline with Tween-80) was 100 % of control and the T/C (dose: 6.25 mg/kg/injection, schedule: Q01DX005 (ip), vehicle: saline with Tween-80) was 99 and 100 % of control. For the same molecule, the survivor count (dose: 12.5 mg/kg/injection, schedule: Q01DX005 (ip), vehicle: saline with Tween-80) was 2 of 6 and the survivor count (dose: 25.0 mg/kg/injection, schedule: Q01DX005 (ip), vehicle: saline with Tween-80) was 0 of 6.
`[N-]=[N+]=Nc1ccc(F)c([N+](=O)[O-])c1` was tested, and the T/C (dose: 12.5 mg/kg/injection, schedule: Q01DX009 (ip), vehicle: other) was 100 % of control, the T/C [4] was 109 % of control and the T/C [5] was 109 % of control. The survivor count [6] was 3 of 6 and the survivor count (dose: 200.0 mg/kg/injection, schedule: Q01DX009 (ip), vehicle: other) was 3 of 6.
In the case of `COc1ccc(C2=CCN(c3ccccc3)P(=O)(Cl)O2)cc1` (stereo unspecified), the T/C (dose: 25.0 mg/kg/injection, schedule: Q01DX005 (ip), vehicle: Klucel (hydroxypropylcellulose) (HPC)) is reported as 98 % of control, the T/C (dose: 50.0 mg/kg/injection, schedule: Q01DX005 (ip), vehicle: Klucel (hydroxypropylcellulose) (HPC)) is reported as 100 and 107 % of control and the T/C (dose: 100.0 mg/kg/injection, schedule: Q01DX005 (ip), vehicle: Klucel (hydroxypropylcellulose) (HPC)) is reported as 102 and 117 % of control. The T/C [7] was 121 % of control and the survivor count [7] was 4 of 5.
In the case of `CC(C)N(CCS)C(C)C`, the T/C [8] is reported as 97 % of control [survivor count not shown], the T/C [9] is reported as 98 % of control [survivor count not shown] and the T/C (dose: 25.0 mg/kg/injection, schedule: Q01DX009 (ip), vehicle: saline) is reported as 100 % of control [survivor count not shown].
In the case of `ClP1(Cl)=NP(Cl)(Cl)=NP(Cl)(Cl)=N1`, the T/C (dose: 12.5 mg/kg/injection, schedule: Q01DX009 (ip), vehicle: Klucel (hydroxypropylcellulose) (HPC)) is reported as 93 % of control, the T/C (dose: 25.0 mg/kg/injection, schedule: Q01DX009 (ip), vehicle: Klucel (hydroxypropylcellulose) (HPC)) is reported as 97 % of control and the survivor count (dose: 50.0 mg/kg/injection, schedule: Q01DX009 (ip), vehicle: Klucel (hydroxypropylcellulose) (HPC)) is reported as 6 of 6. The survivor count (dose: 100.0 mg/kg/injection, schedule: Q01DX009 (ip), vehicle: Klucel (hydroxypropylcellulose) (HPC)) was 1 of 6.
In the case of `O=[N+]([O-])c1cccc(O)c1[N+](=O)[O-]`, the T/C [4] is reported as 100 % of control [5 of 6 alive], the T/C [5] is reported as 100 % of control and the T/C (dose: 50.0 mg/kg/injection, schedule: Q04DX003 (ip), vehicle: other) is reported as 110 % of control. For the same molecule, the T/C [6] was 100 % of control, the T/C (dose: 100.0 mg/kg/injection, schedule: Q04DX003 (ip), vehicle: other) was 105 % of control and the T/C (dose: 200.0 mg/kg/injection, schedule: Q04DX003 (ip), vehicle: other) was 100 % of control.
For `CC1(C)CN1P(=O)(Nc1ncccn1)N1CC1(C)C` (stereo unspecified), the T/C [1] was 200 % of control, the T/C [2] was 195 % of control and the T/C [3] was 168 % of control.
In the case of `OO.[C-]#N.[C-]#N.[C-]#N.[C-]#N.[C-]#N.[C-]#N.[C-]#N.[C-]#N.[C-]#N.[C-]#N.[Co].[Co]`, the T/C (dose: 3.13 mg/kg/injection, schedule: Q01DX009 (ip), vehicle: saline) is reported as 104 % of control, the T/C [8] is reported as 95 % of control and the T/C [9] is reported as 86 % of control. The survivor count (dose: 50.0 mg/kg/injection, schedule: Q01DX009 (ip), vehicle: suspension in saline) was 0 of 6, the survivor count (dose: 100.0 mg/kg/injection, schedule: Q01DX009 (ip), vehicle: suspension in saline) was 0 of 6 and the survivor count (dose: 200.0 mg/kg/injection, schedule: Q01DX009 (ip), vehicle: suspension in saline) was 0 of 6.
With `CN(C)C(=O)Oc1cccn(C)c1=O` the T/C (dose: 12.5 mg/kg/injection, schedule: Q01DX009 (ip), vehicle: water) was 115 % of control, the T/C (dose: 25.0 mg/kg/injection, schedule: Q01DX009 (ip), vehicle: water) was 99 and 103 % of control and the T/C (dose: 50.0 mg/kg/injection, schedule: Q01DX009 (ip), vehicle: water) was 100 and 105 % of control. For the same molecule, the T/C (dose: 100.0 mg/kg/injection, schedule: Q01DX009 (ip), vehicle: water) was 108 [5 of 6 alive] and 109 % of control, the T/C (dose: 200.0 mg/kg/injection, schedule: Q01DX009 (ip), vehicle: water) was 123 and 132 % of control and the survivor count (dose: 400.0 mg/kg/injection, schedule: Q01DX009 (ip), vehicle: water) was 3 of 6.
